Experimental data from patent US20240325562A1, “INTERNALIZING BINDING MOLECULES” (LinXis B.V., priority 2020, published 2024).
Results are given in words; binding and its absence hold for the method and conditions named. Some binding calls cover weakened binding; strength is not graded here.

The chains behind the UniProt entries cited, without tags or fusion partners.
UniProt P11717: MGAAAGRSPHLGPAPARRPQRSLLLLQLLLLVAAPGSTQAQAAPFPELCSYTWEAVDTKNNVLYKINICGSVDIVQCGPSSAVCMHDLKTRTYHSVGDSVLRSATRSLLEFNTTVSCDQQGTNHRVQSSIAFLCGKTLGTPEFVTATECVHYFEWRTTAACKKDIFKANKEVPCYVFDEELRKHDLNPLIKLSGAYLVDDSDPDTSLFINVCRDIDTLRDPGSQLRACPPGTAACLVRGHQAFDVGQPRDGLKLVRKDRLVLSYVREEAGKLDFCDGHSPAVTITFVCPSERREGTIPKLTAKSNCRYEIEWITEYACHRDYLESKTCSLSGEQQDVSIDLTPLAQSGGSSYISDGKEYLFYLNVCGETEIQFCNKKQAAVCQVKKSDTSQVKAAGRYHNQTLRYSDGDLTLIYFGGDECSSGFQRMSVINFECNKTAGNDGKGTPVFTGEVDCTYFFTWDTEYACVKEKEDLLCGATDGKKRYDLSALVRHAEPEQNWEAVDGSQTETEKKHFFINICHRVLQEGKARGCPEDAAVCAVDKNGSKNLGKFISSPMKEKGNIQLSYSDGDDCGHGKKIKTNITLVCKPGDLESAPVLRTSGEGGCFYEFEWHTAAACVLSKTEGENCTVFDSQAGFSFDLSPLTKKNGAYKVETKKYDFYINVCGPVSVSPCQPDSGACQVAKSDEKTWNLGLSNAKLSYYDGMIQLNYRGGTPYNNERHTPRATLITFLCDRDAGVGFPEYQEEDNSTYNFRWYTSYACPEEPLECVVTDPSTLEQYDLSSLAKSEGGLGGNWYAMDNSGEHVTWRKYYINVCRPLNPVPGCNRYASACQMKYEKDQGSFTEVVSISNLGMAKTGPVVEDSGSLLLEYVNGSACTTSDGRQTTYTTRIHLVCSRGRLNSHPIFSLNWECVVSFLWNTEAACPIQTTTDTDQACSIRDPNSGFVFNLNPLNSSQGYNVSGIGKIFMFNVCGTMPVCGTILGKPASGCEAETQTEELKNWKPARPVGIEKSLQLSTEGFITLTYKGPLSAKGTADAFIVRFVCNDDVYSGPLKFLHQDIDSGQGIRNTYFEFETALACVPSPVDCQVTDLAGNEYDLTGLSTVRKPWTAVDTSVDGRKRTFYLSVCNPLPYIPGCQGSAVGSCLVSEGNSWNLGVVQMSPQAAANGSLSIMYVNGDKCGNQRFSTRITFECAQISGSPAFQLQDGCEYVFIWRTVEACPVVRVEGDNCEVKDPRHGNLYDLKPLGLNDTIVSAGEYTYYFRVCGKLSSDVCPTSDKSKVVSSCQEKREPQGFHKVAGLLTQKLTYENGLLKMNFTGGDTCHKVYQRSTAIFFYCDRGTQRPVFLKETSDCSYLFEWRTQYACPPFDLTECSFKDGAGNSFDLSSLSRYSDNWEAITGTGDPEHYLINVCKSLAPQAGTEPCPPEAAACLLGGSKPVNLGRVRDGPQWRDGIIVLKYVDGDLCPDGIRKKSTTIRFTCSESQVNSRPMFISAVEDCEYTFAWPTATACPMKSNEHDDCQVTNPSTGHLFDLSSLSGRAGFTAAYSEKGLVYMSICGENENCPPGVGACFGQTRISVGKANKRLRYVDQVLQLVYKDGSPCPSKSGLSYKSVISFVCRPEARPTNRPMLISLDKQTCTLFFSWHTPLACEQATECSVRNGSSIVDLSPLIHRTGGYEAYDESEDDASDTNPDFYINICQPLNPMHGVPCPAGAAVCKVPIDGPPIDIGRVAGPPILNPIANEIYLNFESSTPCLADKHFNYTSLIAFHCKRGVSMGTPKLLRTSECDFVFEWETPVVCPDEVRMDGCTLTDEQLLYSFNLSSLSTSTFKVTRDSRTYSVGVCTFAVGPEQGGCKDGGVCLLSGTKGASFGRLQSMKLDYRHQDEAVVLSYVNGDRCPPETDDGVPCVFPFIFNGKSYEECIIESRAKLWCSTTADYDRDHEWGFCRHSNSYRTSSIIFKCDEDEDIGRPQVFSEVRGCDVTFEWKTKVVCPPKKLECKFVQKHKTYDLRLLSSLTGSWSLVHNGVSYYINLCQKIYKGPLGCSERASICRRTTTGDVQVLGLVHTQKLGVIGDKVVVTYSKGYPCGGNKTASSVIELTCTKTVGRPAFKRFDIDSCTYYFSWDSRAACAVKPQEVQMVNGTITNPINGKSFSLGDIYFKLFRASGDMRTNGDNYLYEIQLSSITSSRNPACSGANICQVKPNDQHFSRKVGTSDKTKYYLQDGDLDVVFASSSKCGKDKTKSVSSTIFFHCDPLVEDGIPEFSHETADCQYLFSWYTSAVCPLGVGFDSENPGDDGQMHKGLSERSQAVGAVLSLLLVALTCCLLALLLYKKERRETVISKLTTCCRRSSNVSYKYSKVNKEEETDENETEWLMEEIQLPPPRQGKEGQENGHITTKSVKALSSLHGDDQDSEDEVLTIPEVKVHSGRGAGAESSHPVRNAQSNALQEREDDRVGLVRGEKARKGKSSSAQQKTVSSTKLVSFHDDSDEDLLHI

T1: recombinant rPDGFRB ectodomain (rat) (UniProt Q05030)
T1 sequence (looked up): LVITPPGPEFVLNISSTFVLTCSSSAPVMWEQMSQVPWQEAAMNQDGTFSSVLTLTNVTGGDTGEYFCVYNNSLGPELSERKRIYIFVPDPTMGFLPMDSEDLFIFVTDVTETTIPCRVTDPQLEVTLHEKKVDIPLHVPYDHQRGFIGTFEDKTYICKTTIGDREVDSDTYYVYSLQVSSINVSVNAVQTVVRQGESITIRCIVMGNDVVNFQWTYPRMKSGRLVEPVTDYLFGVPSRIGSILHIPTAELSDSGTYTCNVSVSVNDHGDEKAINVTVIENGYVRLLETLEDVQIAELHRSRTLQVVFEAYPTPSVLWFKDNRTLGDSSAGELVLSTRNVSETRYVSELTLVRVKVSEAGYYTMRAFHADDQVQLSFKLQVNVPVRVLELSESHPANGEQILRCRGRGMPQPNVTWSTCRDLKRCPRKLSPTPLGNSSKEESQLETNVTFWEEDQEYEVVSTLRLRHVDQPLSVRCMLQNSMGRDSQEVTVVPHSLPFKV


Molecular target: recombinant human extracellular domain of IGF2R (human) (UniProt P11717)
Test: phage ELISA on hIGF2R-ECD

| Binder | binding |
| --- | --- |
| 13A10 (VHH) VHH: EVQLVESGGGLVQAGGSLRLSCSASGSIFSINYMAWYRQEPGKEREVVASMSWRGDSTYLADSVQGRFTISRNNAKNTMYLQMNSLKPEDTALYYCKANNYWGQGTQVTVSS | binds |

Molecular target: T1, recombinant rPDGFRB ectodomain (rat)
Test: phage ELISA and binding assay on rPDGFRB-ECD; values only in FIG. 6

| Binder | binding |
| --- | --- |
| SP25P (VHH) VHH: EVQLVESGGGLVQPGGSLRLSCAASESIFSINAMGWYRQTPGKQREMVASITPGGFTIYADSVKGRFTISRDNAKNTLYLQMNNLRFEDTAVYYCNAFAGSATSYHDFGSWGQGTQVTVSS | binds |
| SP29P (VHH) VHH: EVQLVESGGGLVQAGDSLRLSCTVSGRTFNTYVTGWFRQAPGKEREFVAAIHQIGSTYYRNSVKGRFTISRDGAKDTVYLQMNNLKPEDSAVYYCAAGNGGYVMSDIAYGTWGQGTQVTVSS | binds |
| SP32P (VHH) VHH: EVQLVESGGGTVQAGDSLRLSCTASGRTFSTYTMGWFRQAPGKERVVVAVNTWNNFTVHQPSVKGRFTMSRDNTKNSIYLQMDSLKPEDTAVYYCAASAKGTARYDYWGQGTQVTVSS | binds |
| SP35P (VHH) VHH: EVQLVESGGGLVQPGGSLRLSCAASGSLGSNNPMAWYRQAPGKERELVASISSAYRTHYADFVKGRFTISRDSPKNTVSLQMNNLKPEDTAVYYCGIFVSARNYWGKGTQVTVSS | binds |

Molecular target: recombinant hPDGFRB ectodomain (human) (UniProt P09619)
Test: phage ELISA and binding assay on hPDGFRB-ECD; values only in FIG. 5

| Binder | binding |
| --- | --- |
| SP11P (VHH) VHH: EVQLVESGGGLVQAGDSLRLSCAASGRTFSSYPIAWFRQAPGKEREFVAAITSSGLTTYYANVVKGRFAISRDNAKDTVYLQMNSLKPEDTAVHYCATSNGFLSGRDIYQHNKYIYWGQGTQVTVSS | binds |
| SP15P (VHH) VHH: EVQLVESGGGLVQAGGSLRLSCAASGRAFGGPYMAWFRQTPGKGREFVAAISPSSVYTFYQDSVKGRFTISRDNTKNTAYLQMNSLKPEDTAVYYCAAEAAGEVRLETSYKYWGQGTQVTVSS | binds |
| SP17P (VHH) VHH: EVQLVESGGGLVQPGGSLRLSCAASGLTFVNYAMGWFRQAPGKERELVAGIASSGRIYYADSVAGRFTISRDNARNTVNLQMNSMKPEDTAVYYCAGRRSFSSTSAADYNYWGQGTQVTVSS | binds |
| SP21P (VHH) VHH: EVQLVESGGGLVQPGGSLRLSCVVSGSSFSSYTMGWFRRAPGKQRELVAGVSTVGDTAAADSVKGRFTISRDNAKNTVYLQMNSLKPEDTAVYYCNTYPHAYLEWGQGTQVTVSS | binds |
| SP23P (VHH) VHH: EVQLVESGGELVQAGGSLRLSCAVSGRTLTSYPMGWFRQAPGKEREFVAAISWSGGDTMYADSVKGRFTISRDNSKNTVYLQMNSLKPEDTADYYCARRRYSSGISRHLVDYEYWGQGTQVTVSS | binds |
